# From patent US20220002432A1
# These are yes or no findings as the source states them, for the method shown. Some entries that bind do so weakly or less than the wild type.
# T1: Rhesus-ICAM1 (rhesus) (UniProt Q5NKV6)
# T1 sequence (looked up): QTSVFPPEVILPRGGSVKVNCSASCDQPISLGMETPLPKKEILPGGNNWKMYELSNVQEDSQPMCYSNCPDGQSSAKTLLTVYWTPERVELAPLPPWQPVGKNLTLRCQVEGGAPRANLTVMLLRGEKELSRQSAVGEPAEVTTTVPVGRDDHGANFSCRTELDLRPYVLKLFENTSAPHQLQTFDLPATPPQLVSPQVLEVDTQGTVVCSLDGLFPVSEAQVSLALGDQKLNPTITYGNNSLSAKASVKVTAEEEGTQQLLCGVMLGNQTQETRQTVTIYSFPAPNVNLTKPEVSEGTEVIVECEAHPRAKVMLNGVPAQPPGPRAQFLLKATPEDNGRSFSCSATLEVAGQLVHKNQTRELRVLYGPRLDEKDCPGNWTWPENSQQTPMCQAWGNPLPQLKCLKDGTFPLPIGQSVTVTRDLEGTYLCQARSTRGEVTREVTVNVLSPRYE
# Target: T1, Rhesus-ICAM1 (rhesus)
# Assay: ELISA: plate coated with 1 ug/ml recombinant rhesus ICAM1 ECD, serially diluted antibody, OD450
row,Binder,binding
1,"15D10 (antibody, human IgG1, kappa, V domains shown) VH: QSVEESGGRLVTPGTPLTLTCTASGFSLNNYYMSWVRQAPGKGLEWIGIISDSDNTYYASWAKGRFTISKTSTTVDLKITSPTTEDTATYFCARDWSLDSSSGYYYYDMDLWGPGTLVTVSA VL: AYDMTQTPASMEVAVGGTVTIKCQASQNIHSWLAWFQQKPGQPPKRLIYKASTLASGVPSRFKGSGSGTQFTLTISGVQSDDAATYYCQQGYSRSDGEHVFGGGTEVVVKR",binds
2,"8H1 (antibody, human IgG1, kappa, V domains shown) VH: QSVEESGGRLVTPGTPLTLTCTASGFSLSNYYMSWVRQAPGKGLEWIGIISDSGSTYYASWAKGRFTISKTSTTVDLKITSPTTEDTATYFCARDWSYDSSSGYYYYDMDLWGPGTLVTVSA VL: GYDMTQTPASVEVAVGGTVTIKCQASQSINSWLAWFQHKPGQPPKRLIYKASTLASGVSSRFKGSGSGTQFTLTISGVESADAATYYCQQGYSRSDGEHVFGGGTEVVVKR",binds
3,"11G7 (antibody, human IgG1, kappa, V domains shown) VH: QSVEESGGRLVTPGTPLTLTCTVSGFSLSDYYMSWVRQAPGKGLEWIGIISDSGSTYYASWAKGRFTISKTSSTTVDLKITSPTTEDTATYFCARDWSYDSSSGYYYYDMDLWGPGTLVTVSA VL: AYDMTQTPASVEVAVGGTVTIKCQASQSINSWLSWFHQKPGQPPKRLIYKASTLASGVSSRFKGSGSGTQFTLTISGVESADAATYYCQQGYSRSDGEHVFGGGTEVVVKR",binds
4,"14H1 (antibody, human IgG1, kappa, V domains shown) VH: QSVEESGGRLVTPGTPLTLTCTVSGFSLSNYYMSWVRQAPGKGLEWIGIISDSGSTYYASWAKGRFTISKTSTTVDLSITSPTTEDTATYFCARDWSYDSTSGYYYYDMDLWGPGTLVTVSA VL: AYDMTQTPASVEVAVGGTVTIKCQASQSINSWLSWFHQKPGQPPKRLIYKASTLASGVSSRFKGSGSGTQFTLTISGVESADAATYYCQQGYSRSDGEHVFGGGTEVVVKR",binds
5,"4H5 (antibody, human IgG1, kappa, V domains shown) VH: QSVEESGGRLVTPGTPLTLTCTASGFSLSNYYMSWVRQAPGKGLEWIGIISDSGTTYYASWAKGRFTISKTSTTVDLKITSPTTEDTATYFCARDWSYDSSSGYYYYDMDLWGPGTLVTVSA VL: GYDMTQTPASVEVAVGGTVTIKCQASQSINSWLVWFQHKPGQPPKRLIYKASTLASGVSSRFKGSGSGTHFTLTISGVESADAATYYCQQGYSRSDGEHVFGGGTEVVVKR",binds
6,"11F2 (antibody, human IgG1, kappa, V domains shown) VH: QSVEESGGGLVKPGGTLTLTCTVSGFSLSSHAMGWVRQAPGKGLEYIGIIGSSDRTYYASWAKGRFTISKTSTTVDLKITSPTTEDTATYFCVRDPYDSYDDGYRLWGPGTLVTVSS VL: AYDMTQTPASVEVAVGGTVTIKCQASQSIYRYLSWYQKKPGQRPKFLIYDASKLASGVPSRFEGSGSGTEFTLTISGAQSDDAATYYCQQAYSSGSIDNAFGGGTEVVVKR",binds
7,"16E4 (antibody, human IgG1, kappa, V domains shown) VH: QSVEESGGRLVTPGTPLTLTCTVSGFSLSSHAMGWVRQAPGKGLQYIGIIGSSGSTYYASWAKGRFTISKTSTTVDLRLTSPTTEDTATYFCVRDPYDSFGDAYRLWGPGTLVTVSS VL: AYDMTQTPASVEVAVGGTVTIKCQASQSIYSYCSWYQQKPGQRPKFLIYDASKLASGVPSRFKGSGSGTEFTLTISGMQSDDAATYYCQQAYSSSNVDNAFGGGTEVVVKR",binds
8,"8B12 (antibody, human IgG1, kappa, V domains shown) VH: QSVEESGGGLVKPGGTLTLTCTVSGFSLSTHAMGWVRQAPGKGLEYIGIIGSSDRTYYASWAKGRFTISKTSTTVDLKITSPTTEDTATYFCVRDPYDSFDDGYRLWGPGTLVTVSS VL: AYDMTQTPASVEVAVGGTVTIKCQASQSIYSYLSWYQQKPGQRPKFLIYDASKVASGVPSRFKGSGSGTEFTLTISAVQSDDAATYYCQQAYSSSNVDNAFGGGTEVMVKR",binds
9,"5B12 (antibody, human IgG1, kappa, V domains shown) VH: QSLEESGGRLVTPGTPLTLTCTVSGFSLSSYGMSWVRQAPGKGLEYIGWISFSGSAYYANWAKGRFTISKTSTTVDLKITSPTTEDTATYFCARGGDYGGSTYILNLWGPGTLVTVSS VL: AFELTQTPSSVEAAVGGTVTIKCQASESIDSYLSWYQQKPGQPPKLLIYAASTLASGVSSRFKGSGSGTEFTLTISDLESADAATYYCQSYSGTITTSGGAFGGGTEVVVKR",binds
10,"10B8 (antibody, human IgG1, kappa, V domains shown) VH: QSLEESGGRLVTPGGSLTLTCTVSGFSLSSYGMSWVRQAPGKGLEYIGWISFSGSAYYANWAKGRFTISKTSTTVDLKITSPTTEDTATYFCARGGDYGGSTYILNLWGPGTLVTVSS VL: AFELTQTPSSVEAAVGGTVTIKCQASESINSYLSWYQQKPGQPPKLLIYAASTLASGVSSRFKGSGSGTEFTLTISDLESADAATYYCQSYSGTISTSGGAFGGGTEVVVKR",binds
11,"14B3 (antibody, human IgG1, kappa, V domains shown) VH: QSLEESGGDLVKPGASLTLTCTASGFSSSSGYYICWVRQAPGKGLEWIACIGAGSGAAYYASWAKGRFTMSKTSSTTVTLQMTSLTAADTATYFCARGGFVVGGGYGGYCFNLWGPGTLVTVSS VL: AQVLTQTASSVSATVGGTVTISCQSSESVDVNNLAWYQQKPGQPPKLLIYSASTLASGVPSRFKGSGSGTQFTLTVSDLESADAATYYCAGGYSGNIFAFGGGTAVVVKR",binds
12,"8E5 (antibody, human IgG1, kappa, V domains shown) VH: QSLEESGGRLVTPGTPLTLTCTVSGFSLSNYAMNWVRQAPGKGLEWIGYISTRGSAYYASWAKGRFTISKTSTTVDLKMTSPTTEDTATYFCARGDLVGGGYIRGSFDPWGPGTLVTVSS VL: AQVLTQTPSPVSAAVGGTVTINCQSSQSVVSDKLLSWFQQKPGQPPKLLIYGASTLASGVPSRFKGSGSGTQFTLTISDVQSDDAATYYCAGAYSTDSDIRAFGGGTEVVVKR",binds
13,"Anti-ICAM1 G12 (antibody, human IgG1, lambda, V domains shown) VH: QVQLQESGGGLVQPGGSLRLSCAASGFTFSSYAMSWVRQAPGKGLEWVSAISGSGGSTYYADSVKGRFTISRDNSKNTLYLQMSSLRAEDTAFYYCANSAYTGGWYDYWGHGTLVTVSS VL: ASELTQDPAVSVALGQTVKITCQGDSLRTYYASWYQQRPGQAPVLVIYGENSRPSGIPDRFSGSSSGNTASLTITGAQAEDEADYYCNSRDSSGNHLRVFGGGTKLTVLG",binds
14,"3D8 (antibody, human IgG1, kappa, V domains shown) VH: QSLEESGGDLVKPGASLTLTCTASGFSFSSSYWMCWVRQAPGKGLEWIACIDGGSAGYNYYATWAKGRFTISKTSSTTVTLQMTSLTAADRATYFCARGPGSSYNLWGPGTLVTVSS VL: DIVMTQTPASVEAAVGGTVTIKCQASQSISSYLSWYQQKPGQPPKLLIYRASTLASGVPSRFKGSGSGTEFTLTISDLESADAATYYCQSYVFGSSRSYDNAFGGGTEVVVKR",binds
15,"6G8 (antibody, human IgG1, kappa, V domains shown) VH: QSVEESGGGLVKPGGTLTLTCTVSGFSLSSYAMGWVRQAPGKGLEYIGIIGSSGSTYYATWAKGRFTISKTSTTVDLKITSPTTEDTATYFCVRDPYDSYDAAYRLWGPGTLVTVSS VL: AYDMSQTPASVEVAVGGTVTIKCQASQSIYSYLSWYQQKPGQRPKLLIYDASKLASGVPSRFTGSGSGTEFTLTISGVQSDDAATYYCQQAYSSSNVDNVFGGGTEVVVKR",binds
16,"2E3 (antibody, human IgG1, kappa, V domains shown) VH: QSVEESGGGLVKPGGTLTLTCTVSGFSLSSYAMGWVRQAPGKGLEYIGIIGSSGSTYYASWAKGRFTISKTSTTVDLKITSPTTEDTATYFCVRDPYDSFGDGYRLWGPGTLVTVSS VL: AYDMTQTPASVEVAVGGTVTIKCQASENIYRYLLWYQQKLGQRPSLLIYDASKLASGVPSRFKGSGSGTEFTLTISGVQSDDAATYYCQQAYSSSNVDNAFGGGTEVVVKR",binds
